{
  "source": "patent US9701716B2",
  "about": "(Centaur, Inc., priority 2014, dated 2017)",
  "assay": "peptide made by a vendor",
  "settings": "whole synthesis, RP-HPLC, TFA salt",
  "note": "End groups of sequences in plain letters are not given here.",
  "data": [
    {"sequence": "GLARILLRWLFFRG", "values": [
      {"measurement": "final HPLC purity", "result": ">97", "unit": "%"}
    ]}
  ]
}
